Data as given in publication PMC4836198.
No constants are given. Whether binding was seen depends on the method and setting. For some assays here: Binding can be weak; no strength is given. For some assays here: Tags and fused reporters may be left off the sequences shown. For some assays here: In cells and extracts the contact can be indirect.

Assays:
GST-Rab11 = target: T1, GST-Rab11 (UniProt O18335); test: pull-down; 20 ug GST-Rab11 on beads with 200 ng Nuf FL (GST removed), 2 h, 4 C, Rab11 interaction buffer (PBS, 2 mM DTT); then 0, 50 or 200 ng PKCz for 2 h; blot anti-Nuf; both purified
T1 sequence: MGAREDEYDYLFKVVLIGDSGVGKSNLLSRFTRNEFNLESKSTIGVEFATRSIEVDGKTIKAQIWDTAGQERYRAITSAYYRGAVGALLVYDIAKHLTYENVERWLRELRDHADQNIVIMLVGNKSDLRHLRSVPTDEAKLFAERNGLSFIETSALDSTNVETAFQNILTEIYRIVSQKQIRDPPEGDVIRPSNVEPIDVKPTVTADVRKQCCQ

[1] = target: T2, Flag-aPKC^KD (aPKC kinase domain, Tetra-Tag construct) (Drosophila) (UniProt A1Z9X0); test: pull-down; Flag-aPKC^KD or Flag-aPKC^RD bound to magnetic beads, incubated with embryonic extracts; blot anti-Nuf; only the target purified
T2 sequence: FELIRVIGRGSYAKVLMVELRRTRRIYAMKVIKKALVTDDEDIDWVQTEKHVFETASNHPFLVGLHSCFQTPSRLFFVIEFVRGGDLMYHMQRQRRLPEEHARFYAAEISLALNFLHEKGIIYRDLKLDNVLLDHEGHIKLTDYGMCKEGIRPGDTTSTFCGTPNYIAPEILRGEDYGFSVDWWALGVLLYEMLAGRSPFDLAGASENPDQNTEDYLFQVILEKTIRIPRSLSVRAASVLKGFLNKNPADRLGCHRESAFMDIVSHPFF

[2] = target: T2, Flag-aPKC^KD (aPKC kinase domain, Tetra-Tag construct) (Drosophila); test: pull-down; Flag-aPKC^KD or Flag-aPKC^KD-mut purified with magnetic beads from embryonic extracts, then incubated with purified recombinant Nuf-GST; blot anti-Nuf; both purified
[3] = target: GST-Nuf full length S155D (Drosophila); test: pull-down; 30 ug GST or GST-Nuf fusion on glutathione beads with 300 ug Drosophila embryo extract, 4 h, 4 C, lysis buffer (50 mM Tris HCl pH 7.5, 150 mM NaCl, 1 % Triton X-100); immunoblot of bound proteins; only the target purified
[4] = target: GST-Nuf full length, wild type (Drosophila); test: as above
[5] = target: GST-Nuf carboxy-terminal domain (Drosophila); test: as above
[6] = target: GST-Nuf amino-terminal domain (1-241), wild type (Drosophila); test: as above
[7] = target: GST-Nuf full length S155A (Drosophila); test: as above
[8] = target: GST-Nuf full length, wild type (Drosophila); test: pull-down; 20 ug GST or Nuf-GST on glutathione beads with 0.25 ug recombinant PKCz in lysis buffer, 2 h, 4 C; washes PBS with 0.5 M NaCl; blot anti-aPKC; both purified

NufFL wt, GST removed (Drosophila)
binding (GST-Rab11): binds

Nuclear Fallout (Nuf), endogenous (Drosophila (endogenous in embryos))
binding [1]: binds

NufFL S155A, GST removed (Drosophila)
binding (GST-Rab11): binds

NufFL S155D, GST removed (Drosophila)
binding (GST-Rab11): binds

GST-Nuf full length, wild type (Drosophila)
binding [2]: binds

B1: aPKC, endogenous (enzyme, UniProt A1Z9X0 1-606)
chain: MQKMPSQILNDGSSVSLNSASMNMANTPNSITVKTAYNGQIIITTINKNISYEELCYEIRNICRFPLDQPFTIKWVDEENDPCTISTKMELDEAIRLYEMNFDSQLVIHVFPNVPQAPGLSCDGEDRSIYRRGARRWRKLYRVNGHIFQAKRFNRRAFCAYCQDRIWGLGRQGFKCIQCKLLVHKKCHKLVQKHCTDQPEPLVKERAEESSDPIPVPLPPLPYEAMSGGAEACETHDHAHIVAPPPPEDPLEPGTQRQYSLNDFELIRVIGRGSYAKVLMVELRRTRRIYAMKVIKKALVTDDEDIDWVQTEKHVFETASNHPFLVGLHSCFQTPSRLFFVIEFVRGGDLMYHMQRQRRLPEEHARFYAAEISLALNFLHEKGIIYRDLKLDNVLLDHEGHIKLTDYGMCKEGIRPGDTTSTFCGTPNYIAPEILRGEDYGFSVDWWALGVLLYEMLAGRSPFDLAGASENPDQNTEDYLFQVILEKTIRIPRSLSVRAASVLKGFLNKNPADRLGCHRESAFMDIVSHPFFKNMDWELLERKQVTPPFKPRLDSDRDLANFPPEFTGEAVQLTPDDDHVIDNIDQSEFEGFEYVNPLLMSLEDCV
binding [3]: no binding | binding [4]: binds | binding [5]: no binding | binding [6]: binds | binding [7]: binds

B2: PKCz (PRKCz Recombinant Human Protein) (enzyme, UniProt Q05513 1-592)
chain: MPSRTGPKMEGSGGRVRLKAHYGGDIFITSVDAATTFEELCEEVRDMCRLHQQHPLTLKWVDSEGDPCTVSSQMELEEAFRLARQCRDEGLIIHVFPSTPEQPGLPCPGEDKSIYRRGARRWRKLYRANGHLFQAKRFNRRAYCGQCSERIWGLARQGYRCINCKLLVHKRCHGLVPLTCRKHMDSVMPSQEPPVDDKNEDADLPSEETDGIAYISSSRKHDSIKDDSEDLKPVIDGMDGIKISQGLGLQDFDLIRVIGRGSYAKVLLVRLKKNDQIYAMKVVKKELVHDDEDIDWVQTEKHVFEQASSNPFLVGLHSCFQTTSRLFLVIEYVNGGDLMFHMQRQRKLPEEHARFYAAEICIALNFLHERGIIYRDLKLDNVLLDADGHIKLTDYGMCKEGLGPGDTTSTFCGTPNYIAPEILRGEEYGFSVDWWALGVLMFEMMAGRSPFDIITDNPDMNTEDYLFQVILEKPIRIPRFLSVKASHVLKGFLNKDPKERLGCRPQTGFSDIKSHAFFRSIDWDLLEKKQALPPFQPQITDDYGLDNFDTQFTSEPVQLTPDDEDAIKRIDQSEFEGFEYINPLLLSTEESV
binding [8]: binds
